Data on one molecule can be found in PMC5853860.

No constants are given. Whether binding was seen depends on the method and setting. Binding seen in cells or lysates may run through a third protein. These calls come from enrichment with a bait or labelling near it, and not all partners need be listed.

This assay has as its target OsCV-GFP (CHLOROPLAST VESICULATION of rice fused to GFP) (Oryza sativa). Nature of the assay: affinity purification with mass spectrometry; anti-GFP magnetic beads (µMACS GFP Isolation Kit) incubated with shoot lysate of 1-week-old rice seedlings at 4 °C for 4 h; seedlings cultured with 20 µM β-estradiol or DMSO for 24 h; LC-MS/MS.

B1: chloroplastic (stromal) glutamine synthetase 2 (enzyme, UniProt P14655 49-428)
chain: VSTETTGVVTRMEQLLNMDTTPFTDKIIAEYIWVGGTGIDLRSKSRTISKPVEDPSELPKWNYDGSSTGQAPGEDSEVILYPQAIFKDPFRGGNNILVMCDTYTPAGEPIPTNKRNRAAQVFSDPKVVSQVPWFGIEQEYTLLQRDVNWPLGWPVGGYPGPQGPYYCAVGSDKSFGRDISDAHYKACLYAGINISGTNGEVMPGQWEYQVGPSVGIEAGDHIWISRYILERITEQAGVVLTLDPKPIQGDWNGAGCHTNYSTKSMREDGGFEVIKKAILNLSLRHDLHISAYGEGNERRLTGLHETASIDNFSWGVANRGCSIRVGRDTEAKGKGYLEDRRPASNMDPYVVTALLAETTILWEPTLEAEVLAAKKLALKV
As to B1, the binding entry is listed as “binds”.
